Data set [1] relates to GST-MaNAC083 (banana). In words: competition EMSA. To be noted: LightShift Chemiluminescent EMSA kit, native acrylamide gel, pH and temperature not stated (refers to previous work), recombinant protein, protein details: N-terminal GST (pGEX-4T-1), label: none (unlabeled competitor).
Data set [2] has as its system GST-MaNAC083 (banana). As to the kind of experiment: EMSA. The note with it: LightShift Chemiluminescent EMSA kit, native acrylamide gel; pH and temperature not stated (refers to previous work); recombinant protein; protein details: N-terminal GST (pGEX-4T-1); label: 5' biotin.

The exact form of at least one protein or probe is not confirmed. For some of these results: Negatives hold for the conditions tested.

“TGGAAGAACTCAACAGGGGGATGCCTTCCCGGGTCT (double strand) [MaACO1 mutant probe]”: the binding result in data set [1] (unlabeled competitor vs N3) is given as “no binding”.
As for “AACGTCCTCGAAGCTCGGGGGCGTTGCCGGGCTGAA (double strand) [MaACO5 mutant probe]”, the binding result in data set [1] (unlabeled competitor vs N7) is “no binding”.
As to “TCACCCGAGCAGCGCCATGTGCAGATAAAAGAAACA (double strand) [MaACO4 probe]”, the binding result in data set [2] is reported as “binds”.
For “TGTGAGACGGAGGAGCCCCCTATGCATGACAACCGG (double strand) [MaACO8 mutant probe]”, the binding result in data set [1] (unlabeled competitor vs N9) is recorded as “no binding”.
Turning to “TCACCCGAGCAGCGCCCCCCGCAGATAAAAGAAACA (double strand) [MaACO4 mutant probe]”, in data set [1] (unlabeled competitor vs N5), the binding result was “no binding”.
For the sequence “TTCTTTCGCAAACAGCATGTCATCGATGAGATTAAG (double strand) [MaACS1 probe]”, the binding result in data set [2] is given as “binds”.
In the case of “TTCTTTCGCAAACAGCCCCCCATCGATGAGATTAAG (double strand) [MaACS1 mutant probe]”, the binding result in data set [1] (unlabeled competitor vs N1) was “no binding”.
On to “TGTGAGACGGAGGAGCATGTTATGCATGACAACCGG (double strand) [MaACO8 probe]”, for which, in data set [2], the binding result is reported as “binds”.
The same measure, in the same setting: next, “TGGAAGAACTCAACAACATGATGCCTTCCCGGGTCT (double strand) [MaACO1 probe]”: “binds”; “AACGTCCTCGAAGCTCACATGCGTTGCCGGGCTGAA (double strand) [MaACO5 probe]”: “binds”.

Values taken from publication PMC10585711.
